Patent EP1806142B1
These are yes or no findings as the source states them, for the method shown. In cells and extracts the contact can be indirect. Some entries that bind do so weakly or less than the wild type.

Chains of the proteins cited; added tags and fusions are not shown. Residues count along the entry.
UniProt O73885: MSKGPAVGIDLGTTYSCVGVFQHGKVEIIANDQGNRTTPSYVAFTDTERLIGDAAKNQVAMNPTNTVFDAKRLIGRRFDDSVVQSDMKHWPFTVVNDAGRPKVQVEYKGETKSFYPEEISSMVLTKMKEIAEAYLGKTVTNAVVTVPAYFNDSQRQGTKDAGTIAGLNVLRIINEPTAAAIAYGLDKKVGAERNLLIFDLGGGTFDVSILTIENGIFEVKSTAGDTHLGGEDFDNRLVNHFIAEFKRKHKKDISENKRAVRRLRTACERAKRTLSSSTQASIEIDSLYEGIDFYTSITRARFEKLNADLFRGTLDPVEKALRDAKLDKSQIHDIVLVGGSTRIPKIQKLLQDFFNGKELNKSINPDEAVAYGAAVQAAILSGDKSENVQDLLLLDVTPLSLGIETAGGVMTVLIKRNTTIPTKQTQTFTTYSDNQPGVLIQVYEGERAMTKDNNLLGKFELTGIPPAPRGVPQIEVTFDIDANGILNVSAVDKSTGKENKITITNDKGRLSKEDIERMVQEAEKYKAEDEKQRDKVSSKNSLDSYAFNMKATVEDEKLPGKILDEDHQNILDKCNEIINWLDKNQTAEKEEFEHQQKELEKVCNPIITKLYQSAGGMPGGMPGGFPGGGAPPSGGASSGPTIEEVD
UniProt P03070, residues 1-272: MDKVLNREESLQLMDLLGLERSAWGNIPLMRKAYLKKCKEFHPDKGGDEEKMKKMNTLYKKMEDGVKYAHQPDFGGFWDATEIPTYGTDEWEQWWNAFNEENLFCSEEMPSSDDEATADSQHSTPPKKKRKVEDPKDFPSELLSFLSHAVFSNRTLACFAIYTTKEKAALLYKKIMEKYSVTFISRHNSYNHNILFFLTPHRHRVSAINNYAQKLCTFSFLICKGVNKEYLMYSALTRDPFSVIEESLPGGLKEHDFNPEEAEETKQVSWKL

Biological target: Hsp73 of LMH cells (chicken hepatoma cells) (chicken) (UniProt O73885)
Assay: co-immunoprecipitation with mAb PAb108 from transfected LMH cells, SDS-PAGE, Coomassie Blue

For “N-terminal 272 residue T-Ag fragment T1-272 (from UniProt P03070 1-272)”, the binding was “binds”.
